Reference: PubChem BioAssay AID743266 (National Center for Advancing Translational Sciences (NCATS), 2014)
Screen size: about 410,000 compounds; about 310 (0.076%) were called active. Inconclusive means that the source gave no clear call. Such entries were picked first, then a sample of the others. The call rests on the fitted dose curve; in most records, active means well fitted activation curve with a large enough effect; inconclusive means small, poorly fitted or top-dose-only effect, or another doubt; inactive means no such curve, though single readings can be large or run the other way. Where the call is inconclusive, the potency comes from a doubtful curve fit.

Protein sequences, listed by entry. Tags and fused reporters are not part of them. Lines headed by an entry give the natural chain unless they say otherwise; changes in a name come on top.
UniProt Q03431: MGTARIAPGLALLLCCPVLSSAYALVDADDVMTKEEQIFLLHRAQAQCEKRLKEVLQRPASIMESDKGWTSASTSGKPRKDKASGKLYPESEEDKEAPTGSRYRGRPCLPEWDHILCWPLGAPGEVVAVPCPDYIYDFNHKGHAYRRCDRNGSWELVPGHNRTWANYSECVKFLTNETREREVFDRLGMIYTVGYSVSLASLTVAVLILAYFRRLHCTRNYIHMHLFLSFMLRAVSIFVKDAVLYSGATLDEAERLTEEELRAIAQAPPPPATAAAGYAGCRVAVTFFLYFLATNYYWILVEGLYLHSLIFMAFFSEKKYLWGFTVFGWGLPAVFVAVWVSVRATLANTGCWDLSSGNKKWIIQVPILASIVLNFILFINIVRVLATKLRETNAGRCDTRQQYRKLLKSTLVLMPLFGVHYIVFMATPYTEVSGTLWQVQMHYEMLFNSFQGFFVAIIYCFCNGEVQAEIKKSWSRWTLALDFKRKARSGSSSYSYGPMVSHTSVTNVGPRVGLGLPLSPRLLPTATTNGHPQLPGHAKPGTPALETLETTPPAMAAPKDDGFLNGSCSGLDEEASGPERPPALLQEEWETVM

Each molecule was assayed against Parathyroid hormone/parathyroid hormone-related peptide receptor (Homo sapiens) (UniProt Q03431) (assay: qHTS for PTHR1 Agonists: Primary Screen). Conditions: HEK293 GP2 PTHR1 cells, GloSensor cAMP luminescence, 1 h; activation: at 115 µM (top of the series) unless noted; series mostly up to 115 µM.
Outline: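 HEK-293-derived GP2 cells expressing PTHR1 and a GloSensor cAMP reporter, 3,000/well, plated overnight, given luciferin plus IBMX (each 0.5 mM as added) for 1 h at 37 °C, then compound for 1 h at 37 °C. Luminescence was read after 15 min at room temperature.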
Further: nearly all actives have a fitted effect of over 55% in size.
Potency means the concentration at half of the fitted maximal effect.

Compound	activation	Potency	outcome
CCc1nc2nc(C)cc(Nc3cccc(C)c3C)n2n1	inactive: -56.3%	–	–
Cc1cc(NCCCn2ccnc2)n2nc(C)c(-c3ccccc3)c2n1	–	inconclusive: 1.58 µM [activator, full curve, poor fit]	–
O=C1CCCC2=C1C(c1ccc3c(c1)OCO3)c1c([nH]n(-c3ccccc3)c1=O)N2 (stereo not given)	–	inconclusive: 39.8 µM [activator, single point]	–
Cc1nnc(N2CCC(C(=O)NCCC(C)C)CC2)c2nn(-c3ccc(Cl)cc3)c(C)c12	–	inconclusive: 126 µM [activator, single point]	–
O=C(CSc1nc2ccc(NC(=O)CSc3nnnn3-c3ccccc3)cc2s1)Nc1ccccc1	–	–	inactive
COc1cc(-c2nc3cnccn3c2Nc2ccc3c(c2)OCCO3)ccc1O	–	inconclusive: 79.4 µM [activator, single point]	–
CC1(C(=O)NS(=O)(=O)Cc2cccc(Cl)c2)CCN1C(=O)Cc1cccs1 (stereo not given)	–	inconclusive: 0.767 µM [activator, full curve, poor fit]	–
Cc1ccc(Sc2ccc(/C=N/O)cc2[N+](=O)[O-])cc1	–	inconclusive: 3.98 µM [activator, partial curve]	–
CC(C)NC(=O)Cn1c(=O)c2c(ncn2Cc2ccccc2)n(Cc2ccccc2)c1=O	–	inconclusive: 0.891 µM [activator, full curve, poor fit]	–
CCC(=O)Nc1cc(C(F)(F)F)ccc1N1CCOCC1	inconclusive: 101% [activator] [at 57.5 µM]	–	–
Cc1ccnc(SCC(=O)NC2CC2)n1	inconclusive: 56.7% [activator]	–	–
NNC(=O)c1sc2cc(C(F)(F)F)cnc2c1-c1ccccn1	–	inconclusive: 112 µM [activator, single point]	–
Clc1cccc(CNCCNCc2cccc(Cl)c2)c1	–	inconclusive: 15.8 µM [activator, single point]	–
COc1ccc(C)cc1S(=O)(=O)N(CC(=O)NCc1ccc(Cl)cc1)Cc1ccccc1	inactive: -20.8%	–	–
CCOC(=O)c1c(C)[nH]c(C)c1S(=O)(=O)N(C)CC(=O)Nc1cc(Cl)ccc1OC	inconclusive: -62.1% [activator]	–	–
CCOCCCNC(=O)N1CCN(S(=O)(=O)c2ccc3c(ccn3C)c2)CC1	–	inconclusive: 11.2 µM [activator, partial curve]	–
COc1cc2[nH]c(C)c(-c3ccccc3)c(=O)c2cc1Cl	–	inconclusive: 126 µM [activator, single point]	–
CN(CC(=O)NCCc1ccc(F)cc1)Cc1ccc(Br)cc1	inactive: -4.42%	–	–
COc1ccc(N(CC(=O)Nc2ccc3c(c2)OCO3)S(C)(=O)=O)c(OC)c1	–	inconclusive: 282 µM [activator, partial curve, poor fit]	–
C=CCSc1nc(Cc2ccc(Cl)cc2)nc2ccccc12	–	inconclusive: 28.2 µM [activator, single point]	–
CCOc1ccc(C(C)NC(=S)NCc2ccc(Cl)cc2)cc1 (stereo not given)	–	inconclusive: 7.94 µM [activator, full curve, poor fit]	–
Cn1c(=O)c2c(nc(Oc3ccc4c(c3)OCO4)n2Cc2ccc(F)cc2)n(C)c1=O	inconclusive: -8.11% [activator] [at 57.5 µM]	–	–
CC(=O)NCCNC(=O)C1CCCCN1S(=O)(=O)c1ccccc1 (stereo not given)	inconclusive: 46.2% [activator]	–	–

Arranged by SMILES length (low to high): some entries from above.
Compound	activation	Potency	outcome
Clc1cccc(CNCCNCc2cccc(Cl)c2)c1	–	inconclusive: 15.8 µM [activator, single point]	–
CCC(=O)Nc1cc(C(F)(F)F)ccc1N1CCOCC1	inconclusive: 101% [activator] [at 57.5 µM]	–	–
Cc1ccc(Sc2ccc(/C=N/O)cc2[N+](=O)[O-])cc1	–	inconclusive: 3.98 µM [activator, partial curve]	–
Cc1cc(NCCCn2ccnc2)n2nc(C)c(-c3ccccc3)c2n1	–	inconclusive: 1.58 µM [activator, full curve, poor fit]	–
COc1cc(-c2nc3cnccn3c2Nc2ccc3c(c2)OCCO3)ccc1O	–	inconclusive: 79.4 µM [activator, single point]	–
CCOCCCNC(=O)N1CCN(S(=O)(=O)c2ccc3c(ccn3C)c2)CC1	–	inconclusive: 11.2 µM [activator, partial curve]	–
CC1(C(=O)NS(=O)(=O)Cc2cccc(Cl)c2)CCN1C(=O)Cc1cccs1 (stereo not given)	–	inconclusive: 0.767 µM [activator, full curve, poor fit]	–
COc1ccc(N(CC(=O)Nc2ccc3c(c2)OCO3)S(C)(=O)=O)c(OC)c1	–	inconclusive: 282 µM [activator, partial curve, poor fit]	–
Cn1c(=O)c2c(nc(Oc3ccc4c(c3)OCO4)n2Cc2ccc(F)cc2)n(C)c1=O	inconclusive: -8.11% [activator] [at 57.5 µM]	–	–
CCOC(=O)c1c(C)[nH]c(C)c1S(=O)(=O)N(C)CC(=O)Nc1cc(Cl)ccc1OC	inconclusive: -62.1% [activator]	–	–

The listing continues.

Compound	activation	Potency	outcome
O=C(CSc1nnc(-c2ccccc2F)o1)OCc1ccccc1	–	inconclusive: 35.5 µM [activator, single point]	–
COc1ccc(S(=O)(=O)N(CC(=O)O)c2ccccc2)cc1	–	inconclusive: 50.1 µM [activator, single point]	–
CNC(=S)N1CCC(NC(=O)C(Cc2ccc(OC)cc2)NC(C)=O)CC1 (stereo not given)	–	inconclusive: 5.62 µM [activator, full curve, poor fit]	–
CN(C)c1nc2ccccc2c(N)c1-c1ccccc1	inactive: -6.4% [at 57.5 µM]	–	–
Cc1[nH]c(-c2ccco2)nc1C(=O)O	–	inconclusive: 3.55 µM [activator, single point]	–
COc1ccc(S(=O)(=O)N(C(=O)c2ccco2)c2cc3sc(=O)oc3c3ccccc23)cc1	inactive: 4.56%	–	–
OCCC1CN(CCCc2ccccc2)CCN1Cc1ccccc1 (stereo not given)	inactive: -7.78%	–	–
O=C(Cc1ccccc1)c1c[nH]c(C(=O)NCCCN2CCOCC2)c1	inactive: -27.5%	–	–
CC1CCC(NC(=O)COC(=O)C2=NN(c3ccccc3)C(=O)CC2)CC1 (stereo not given)	–	inconclusive: 158 µM [activator, single point]	–
CCOC(=O)c1c(C)n(C)c2ccc(OC)c(NC(=O)CN3CCN(C(=O)c4ccco4)CC3)c12	inconclusive: 83.7% [activator]	–	–
Cc1cc(C)c(NC(=O)Cn2c([N+](=O)[O-])cnc2C)c(C)c1	–	inconclusive: 126 µM [activator, single point]	–
COc1ccccc1N1CCN(S(=O)(=O)c2cc(-c3cc(C)no3)ccc2C)CC1	inactive: -21.3%	–	–
CC(C)c1ccc(NC(=S)NCc2cccs2)cc1	–	inconclusive: 2.24 µM [activator, partial curve, poor fit]	–
COc1ccccc1Oc1nc2c(C)cccn2c(=O)c1/C=C(\C#N)c1nc2ccccc2[nH]1	–	–	inactive
Cc1ccc(S(=O)(=O)NCC(C)NS(C)(=O)=O)cc1 (stereo not given)	–	inconclusive: 35.5 µM [activator, single point]	–
O=C(O)C1CC(c2cccc(Br)c2)=NO1 (stereo not given)	–	inconclusive: 28.2 µM [activator, partial curve, poor fit]	–
O=C(CNS(=O)(=O)c1ccccc1)NCC(=O)OCc1ccc(C(=O)c2ccccc2)cc1	inactive: -28.1%	–	–
CCOC(=O)C1=CCN(S(=O)(=O)c2cccc(Cl)c2)C1c1ccccc1 (stereo not given)	inactive: -3.04%	–	–
O=C(NCC1CCCO1)c1ccc(COc2ccccc2)cc1 (stereo not given)	inactive: -19%	–	–
COc1ccc(Cl)cc1NC(=O)Nc1ccc(C(=O)N2CCCC2)cc1	inactive: -18.6%	–	–
CCc1ccc(S(=O)(=O)c2cn(C)c3cc(OC)c(OC)cc3c2=O)cc1	–	inconclusive: 141 µM [activator, single point]	–
CCOc1c(Cl)cc(CNCC(O)c2ccccc2)cc1OC (stereo not given)	–	inconclusive: 25.1 µM [activator, single point]	–
